# Laboratory results: PubChem BioAssay (Tox21)
# Protein sequences, listed by entry. Tags and fused reporters are not part of them.
# UniProt P28223, whole entry, looked up: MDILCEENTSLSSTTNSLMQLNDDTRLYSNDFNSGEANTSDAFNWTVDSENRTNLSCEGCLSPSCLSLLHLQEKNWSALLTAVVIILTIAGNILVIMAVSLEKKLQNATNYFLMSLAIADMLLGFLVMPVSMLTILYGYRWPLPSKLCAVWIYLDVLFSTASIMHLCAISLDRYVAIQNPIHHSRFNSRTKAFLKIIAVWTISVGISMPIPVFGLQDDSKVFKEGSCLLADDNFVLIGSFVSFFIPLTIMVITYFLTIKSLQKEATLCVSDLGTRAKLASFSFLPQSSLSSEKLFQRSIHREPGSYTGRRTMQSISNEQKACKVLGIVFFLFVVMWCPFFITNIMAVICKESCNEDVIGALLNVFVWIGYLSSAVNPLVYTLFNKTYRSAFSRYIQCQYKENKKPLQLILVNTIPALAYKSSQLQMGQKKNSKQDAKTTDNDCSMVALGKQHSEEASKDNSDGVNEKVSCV
# Several values for one entry are separate records, joined by “and”; a condition that tells them apart may be missing. Equal entries are not always repeated. Inconclusive results, whose numbers are uncertain, are shown with a selection of clear calls. Potencies beside an inconclusive call are fits to weak or partial responses and may not hold up. The source holds several records for some structures; these can differ, active in one and inactive in another. Activity calls are given as the source filed them. Calls follow the shape of the full dose curve.
# Target: 5-hydroxytryptamine receptor 2A (Homo sapiens) (UniProt P28223)
# Test: 5-hydroxytryptamine receptor 2A (HTR2A) small molecule antagonists, cell-based qHTS assay (AID 1963586); also: nearly all actives have a fitted effect of over 45% in size
# Conditions: HTR2A-CHO cells, DOI-induced calcium flux, fluorescence; series mostly up to 61.5 µM
# How it was run: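 Antagonist-mode intracellular calcium assay: DOI (4 nM) added after 5 min compound pre-incubation at room temperature to dye-loaded HTR2A-CHO cells. Fluorescence followed for 3 min, sampled every second.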
# % is scaled to controls: 0 for no effect and ±100 for the full control effect; potency is read from the fitted curve at half-maximal effect.
Structure (SMILES),Potency,"activity, negative = inhibition"
CCCCCCCCCCCCCCCCCCO,"inconclusive: 18.3 µM [inhibitor, single point]",–
Cc1cccc(C)c1NC(=O)CN(CC(=O)O)CC(=O)O,inactive,–
CCC(C)c1cc([N+](=O)[O-])cc([N+](=O)[O-])c1OC(=O)OC(C)C (stereo unspecified),"inconclusive: 0.0033 µM [inhibitor, single point]",–
C[C@@H]1O[C@@H](O[C@@H]2[C@@H](O)[C@H](OCCc3ccc(O)c(O)c3)O[C@H](CO[C@@H]3O[C@H](CO)[C@@H](O)[C@H](O)[C@H]3O)[C@H]2OC(=O)/C=C/c2ccc(O)c(O)c2)[C@H](O)[C@H](O)[C@H]1O,"inconclusive: 40.7 µM [inhibitor, single point]",–
CC(=O)Oc1ccc(C(=C2CCCCC2)c2ccc(OC(C)=O)cc2)cc1,inactive,–
CC(CNC1CCCCC1)OC(=O)c1ccccc1 (stereo unspecified),inactive,–
O=C(Oc1ccccc1)Oc1ccccc1,inconclusive: 37.4 µM [inhibitor],–
C/C(=C(/OCCOc1ccc(Cl)cc1)c1ccc(Cl)cc1Cl)n1ccnc1,"inconclusive: 10.3 µM [inhibitor, partial curve, poor fit]",–
C=C(C)C(=O)OCCOc1ccccc1,"inconclusive: 7.48 µM [inhibitor, full curve, poor fit]",–
CC(C)CCOC(=O)c1ccc(N(C)C)cc1,"inconclusive: 0.0008 µM [inhibitor, full curve, poor fit]",–
CC(C)(O)c1coc(S(=O)(=O)NC(=O)Nc2c3c(cc4c2CCC4)CCC3)c1,"inconclusive: 0.168 µM [inhibitor, full curve, poor fit]",–
C#CCN(C)CCCOc1ccc(Cl)cc1Cl,active: 16.3 µM,–
CCN(CC)CCNC(=O)c1cc(Br)c(N)cc1OC,"inconclusive: 20.5 µM [inhibitor, single point]",–
Cc1ccc(N(C)C)cc1,active: 0.133 µM,–
O=C(N[C@@H](c1ccccc1)[C@@H]1CCCCN1)c1cccc(C(F)(F)F)c1Cl,"inconclusive: 4.21 µM [inhibitor, single point]",–
C=CC(=O)OCCC#N,inactive,–
CN(C)CCc1c[nH]c2ccc(CS(=O)(=O)N3CCCC3)cc12,"inconclusive: 20.5 µM [inhibitor, partial curve, poor fit]",–
O=C(O)/C=C\C(=O)O,active: 27.5 µM and active: 3.75 µM,–
NC(=O)NS(=O)(=O)c1ccc(Cl)cc1,inactive,–
Clc1ccc2c(Cl)ccnc2c1,inactive,–
CC(COc1ccccc1)N(CCCl)Cc1ccccc1 (stereo unspecified),"inconclusive: 13.4 µM [inhibitor, full curve, poor fit] and inconclusive: 47.2 µM [inhibitor, single point] and inconclusive: 11.6 nM [inhibitor, full curve, poor fit]",–
CCCCCCCCCCOC(C)=O,"inconclusive: 47.2 µM [inhibitor, partial curve, poor fit]",–
CN(C)Cc1cc(C(C)(C)C)c(O)c(C(C)(C)C)c1,active: 3.75 µM,–
CCCCCCCCCCCCCOC(=O)CCSCCC(=O)OCCCCCCCCCCCCC,–,inactive: 1.85% [at 12.7 µM]
CCOC(=O)C(C)Oc1ccc(Oc2cnc3cc(Cl)ccc3n2)cc1 (stereo unspecified),"inconclusive: 0.351 µM [inhibitor, single point]",–
c1cc(CN2CCCCC2)cc(OCCCNc2nc3ccccc3s2)c1,"inconclusive: 0.0326 µM [inhibitor, full curve, poor fit]",–

# Structural class: the entries above containing nitrogen in an aromatic ring (five)
Structure (SMILES),Potency,"activity, negative = inhibition"
C/C(=C(/OCCOc1ccc(Cl)cc1)c1ccc(Cl)cc1Cl)n1ccnc1,"inconclusive: 10.3 µM [inhibitor, partial curve, poor fit]",–
CN(C)CCc1c[nH]c2ccc(CS(=O)(=O)N3CCCC3)cc12,"inconclusive: 20.5 µM [inhibitor, partial curve, poor fit]",–
Clc1ccc2c(Cl)ccnc2c1,inactive,–
CCOC(=O)C(C)Oc1ccc(Oc2cnc3cc(Cl)ccc3n2)cc1 (stereo unspecified),"inconclusive: 0.351 µM [inhibitor, single point]",–
c1cc(CN2CCCCC2)cc(OCCCNc2nc3ccccc3s2)c1,"inconclusive: 0.0326 µM [inhibitor, full curve, poor fit]",–
